Data from paper PMC7357788, “Overlapping functions and protein-protein interactions of LRR-extensins in Arabidopsis” (PLoS Genetics, 2020).

Biological target: LRX1^ΔE-FLAG (Arabidopsis thaliana)
Assay: co-IP; proteins transiently co-expressed in N. benthamiana leaves; extract in 200 mM Tris-HCl pH 7.5, 150 mM NaCl, 0.5% Triton X-100; anti-HA or anti-FLAG magnetic beads overnight at 4°C; immunoblot; in Fig 2A synthetic RALF1 peptide (50, 100, 200, 1000 nM) was added to the extracts

binding: binds
B1: FER^ECD-Citrine (domain or fragment, UniProt Q9SCZ4 28-447)
chain: ADYSPTEKILLNCGGGASNLTDTDNRIWISDVKSKFLSSSSEDSKTSPALTQDPSVPEVPYMTARVFRSPFTYTFPVASGRKFVRLYFYPNSYDGLNATNSLFSVSFGPYTLLKNFSASQTAEALTYAFIIKEFVVNVEGGTLNMTFTPESAPSNAYAFVNGIEVTSMPDMYSSTDGTLTMVGSSGSVTIDNSTALENVYRLNVGGNDISPSADTGLYRSWYDDQPYIFGAGLGIPETADPNMTIKYPTGTPTYVAPVDVYSTARSMGPTAQINLNYNLTWIFSIDSGFTYLVRLHFCEVSSNITKINQRVFTIYLNNQTAEPEADVIAWTSSNGVPFHKDYVVNPPEGNGQQDLWLALHPNPVNKPEYYDSLLNGVEIFKMNTSDGNLAGTNPIPGPQVTADPSKVLRPTTRKSKSNTA

These are yes or no findings as the source states them, for the method shown. In cells and extracts the contact can be indirect. A result given as binding can be weak or reduced; the word gives no strength.
